Results are given in words; binding and its absence hold for the method and conditions named. For some assays here: Binding seen in cells or lysates may run through a third protein. Some results given as binding are weak or reduced against the parent protein; the word gives no strength. For some assays here: Tags and fused reporters may be left off the sequences shown. Blank lines part the entries; values can stand above or below the binder they belong to.
Key:
[1] = target: T1, peptide deformylase (Treponema pallidum) (UniProt B2S3Z6); experiment: two-hybrid; systematic array-based yeast two-hybrid screen of the T. pallidum proteome; baits in pAS1-loxP or pLP-GBKT7Amp against arrayed preys in pLP-GADT7
T1 sequence: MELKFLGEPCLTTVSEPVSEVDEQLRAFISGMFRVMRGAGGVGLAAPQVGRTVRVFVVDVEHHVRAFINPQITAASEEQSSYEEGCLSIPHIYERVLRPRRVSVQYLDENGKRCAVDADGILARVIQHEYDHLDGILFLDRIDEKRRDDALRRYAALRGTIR

[2] = target: T2, ribosomal protein L32 (Treponema pallidum) (UniProt B2S446); experiment: as above
T2 sequence: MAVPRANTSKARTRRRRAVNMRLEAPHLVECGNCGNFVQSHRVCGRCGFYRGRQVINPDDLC

[3] = target: T3, TP0701 (Treponema pallidum) (UniProt O83699); experiment: as above
T3 sequence: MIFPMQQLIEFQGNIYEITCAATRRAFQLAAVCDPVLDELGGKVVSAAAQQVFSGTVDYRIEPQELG

[4] = target: T4, ribulose-3-P-epimerase (Treponema pallidum) (UniProt O66107); experiment: as above
T4 sequence: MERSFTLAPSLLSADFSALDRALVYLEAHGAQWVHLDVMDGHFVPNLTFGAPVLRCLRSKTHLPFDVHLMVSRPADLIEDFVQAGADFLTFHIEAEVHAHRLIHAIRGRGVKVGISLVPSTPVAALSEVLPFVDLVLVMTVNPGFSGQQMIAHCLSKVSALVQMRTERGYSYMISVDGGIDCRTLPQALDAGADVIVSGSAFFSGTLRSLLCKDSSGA

[5] = target: T5, GyrB (Treponema pallidum) (UniProt O08399); experiment: as above
T5 sequence: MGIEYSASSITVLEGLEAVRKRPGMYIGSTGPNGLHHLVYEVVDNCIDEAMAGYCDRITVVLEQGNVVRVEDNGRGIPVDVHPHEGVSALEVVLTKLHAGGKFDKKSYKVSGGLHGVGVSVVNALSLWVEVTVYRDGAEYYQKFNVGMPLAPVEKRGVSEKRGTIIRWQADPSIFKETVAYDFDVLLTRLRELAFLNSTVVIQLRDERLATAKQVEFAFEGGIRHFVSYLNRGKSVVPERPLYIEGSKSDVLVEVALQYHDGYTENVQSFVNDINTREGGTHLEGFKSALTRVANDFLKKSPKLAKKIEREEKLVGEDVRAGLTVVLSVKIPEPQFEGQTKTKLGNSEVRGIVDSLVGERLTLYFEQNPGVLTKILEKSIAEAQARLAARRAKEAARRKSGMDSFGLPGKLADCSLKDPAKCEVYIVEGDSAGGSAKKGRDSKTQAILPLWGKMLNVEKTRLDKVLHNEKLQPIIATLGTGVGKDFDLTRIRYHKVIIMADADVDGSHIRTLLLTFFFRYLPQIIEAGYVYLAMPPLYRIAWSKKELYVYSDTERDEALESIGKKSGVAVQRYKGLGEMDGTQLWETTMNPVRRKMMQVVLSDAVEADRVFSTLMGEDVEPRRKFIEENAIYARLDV

[6] = target: T6, Myc-tagged GyrB protein (Treponema pallidum) (UniProt O08399); experiment: co-IP; E. coli BL21/DE3 co-transformed with Myc-tag (pBad24Myc_loxP) and HA-tag (pBad33HA_loxP) fusions, induced with 0.2% L-Ara for 3 h at 37°C; precipitated with anti-Myc, blots probed with anti-HA and anti-Myc; empty Myc-tag vector as control
T6 sequence: T5 sequence

[7] = target: T7, DNA replication initiation protein DnaA (Treponema pallidum) (UniProt B2S1V1); experiment: two-hybrid; systematic array-based yeast two-hybrid screen of the T. pallidum proteome; baits in pAS1-loxP or pLP-GBKT7Amp against arrayed preys in pLP-GADT7
T7 sequence: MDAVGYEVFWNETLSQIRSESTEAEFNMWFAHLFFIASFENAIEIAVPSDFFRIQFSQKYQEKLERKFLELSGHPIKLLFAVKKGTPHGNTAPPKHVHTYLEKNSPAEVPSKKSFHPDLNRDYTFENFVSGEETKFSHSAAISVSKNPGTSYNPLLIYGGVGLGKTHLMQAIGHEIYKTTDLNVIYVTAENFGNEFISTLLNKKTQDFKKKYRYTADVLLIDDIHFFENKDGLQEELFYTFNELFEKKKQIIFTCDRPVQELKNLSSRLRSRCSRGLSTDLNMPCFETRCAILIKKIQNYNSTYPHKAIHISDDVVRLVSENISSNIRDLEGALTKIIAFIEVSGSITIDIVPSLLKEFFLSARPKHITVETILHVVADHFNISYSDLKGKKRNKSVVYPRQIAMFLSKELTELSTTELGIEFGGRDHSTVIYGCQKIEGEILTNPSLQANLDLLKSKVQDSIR

[8] = target: T8, SbcD (Treponema pallidum) (UniProt O83634); experiment: as above
T8 sequence: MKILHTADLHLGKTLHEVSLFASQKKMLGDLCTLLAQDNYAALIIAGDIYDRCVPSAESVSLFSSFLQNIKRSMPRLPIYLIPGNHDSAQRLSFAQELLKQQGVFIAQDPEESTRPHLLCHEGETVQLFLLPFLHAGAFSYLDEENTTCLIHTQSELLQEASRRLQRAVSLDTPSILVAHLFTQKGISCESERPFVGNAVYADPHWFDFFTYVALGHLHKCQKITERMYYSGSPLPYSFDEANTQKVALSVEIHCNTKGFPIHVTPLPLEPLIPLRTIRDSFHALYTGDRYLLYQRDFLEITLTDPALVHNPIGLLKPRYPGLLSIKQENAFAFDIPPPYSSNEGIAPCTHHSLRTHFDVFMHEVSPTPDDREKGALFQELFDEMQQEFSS

binding [1]: binds
binding [2]: binds
B1: TP0650 (protein, UniProt O83656 1-160)
chain: MSEVNKVSVSCEGFCPPPWIGQVAPFVCAVLDSQAISHWDLSIVCCTDAFIRRLNYDYRGIDSPTDVLSFENDGEYCDDAGTRFFLAGDIIISLESVRENSERFHVAAHEEFKRVLIHGILHLSGMDHQDNSPGQEMLRLQERILAQHCRVLSSGIPWES

binding [3]: binds
B2: TP0772 (protein, UniProt O83751 1-274)
chain: MCATLRPMETLGFCMLSPSTLPLRKWGIRLCRAGYRALGALLGTGVLVCCASSTNMTVSNDYPPKELGVLNAYTVDRLRTAISPRDFTFVFDPPIDTVLMQFKFLLDGITLYLERKDRTALREAIEKYLGEYEAQTLTREKSSERAYFGTTTPLMTWGILGSAHNATPTMRFEYQFITDDRPYFIIANRTIPGANGYNCPAVRIALSPAQCSQVMQYLDQGNLDALLEEMAQSFETFDTQQDPKKTPETDKNAAYKGKEKKGKKEERGPRSIMK

binding [4]: binds
B3: TP0320 (protein, UniProt O83340 1-51)
chain: MPPVPARGRPSSSSDFCLYGMAVVNGFCVQDIPYGSRVVLPGRMRSSSAGA

binding [5]: binds
B4: TP0004 (protein, UniProt O83050 1-145)
chain: MNNGVNKLSDLLVLTTEYIQASYETEAFDAHREWVCIVGNPVALHSTLVDIRNGKVVVKVTHPGWAQYLLLKKDEIVHALRRRYPSLGVTGMSTYVDSTSRTPSAKKDMQGLSVSEKQTRPVPELAEVFEQLRTLFQVKTEEPSH

binding [6]: binds
B5: HA-tagged protein TP0004 (protein, UniProt O83050 1-145)
chain: B4 chain

binding [7]: binds
binding [8]: binds
B6: TP0183 (protein, UniProt O83213 1-281)
chain: MKKGVRSSRLLILFVLFAHAVHAAPRVGVYRLEVSGVPAHTETTINDALFSFIRELRGYHVVDCREQAVPHRFPEKGNLDYIFCGAMDLTPEGIRLAVALKGKDHNATRLLSKTYETAARILLDSRHLVRDVFDRSVPLTGNQTETSSMRHTRAGEESVSSLDALAGSWHSTEEGERIVIVSEGRGIAVLRSGLSVPLKLKISDGVLVVSQKGAVNARQFSHFPPEIAQKLAQEARPLQWRFPKISGNNRLSGVRTAPVVRGAGHTASVEYEEVPEEWVRN
